Data reported in EP0987023A1, “Transition metal complexes of non steroidal anti-inflammatory drugs” (PANACEA BIOTEC LIMITED, priority 1998, dated 2000).

Columns and labels:
[1] = system: Cyclooxygenase 2/Cyclooxygenase 1; settings: IC50 (µg/ml) of COX2 divided by IC50 for COX1; values below 1 indicate selectivity for COX2; from Drugs of Today Vol. 32 Suppl. D 1996 p. 5; cited from earlier work
[2] = collected values of NSAIDs; cited from earlier work
[3] = system: rats; test: Ulcerogenic effect evaluated by ulcer index in rats; settings: n=3, 4 mg/kg p.o.

## COc1ccc2cc([C@H](C)C(=O)O)ccc2c1 [Naproxen, (+) -2-(6-Methoxy-2-haphthyl) propionic acid]
[1]
  Cyclooxygenase 2/Cyclooxygenase 1 ratio: 0.6
[2]
  LD50: 395 mg/kg
  Therapeutic Index: 190
[3]
  Ulcer Index: 4.66±1.01
